In the supplement of paper PMC10849652:
The list shows a part of the results.

Amino acid sequences for entries named in this document (tags omitted). A change or cut given only in a name is not applied to a line headed by its entry.
UniProt Q9H7F0: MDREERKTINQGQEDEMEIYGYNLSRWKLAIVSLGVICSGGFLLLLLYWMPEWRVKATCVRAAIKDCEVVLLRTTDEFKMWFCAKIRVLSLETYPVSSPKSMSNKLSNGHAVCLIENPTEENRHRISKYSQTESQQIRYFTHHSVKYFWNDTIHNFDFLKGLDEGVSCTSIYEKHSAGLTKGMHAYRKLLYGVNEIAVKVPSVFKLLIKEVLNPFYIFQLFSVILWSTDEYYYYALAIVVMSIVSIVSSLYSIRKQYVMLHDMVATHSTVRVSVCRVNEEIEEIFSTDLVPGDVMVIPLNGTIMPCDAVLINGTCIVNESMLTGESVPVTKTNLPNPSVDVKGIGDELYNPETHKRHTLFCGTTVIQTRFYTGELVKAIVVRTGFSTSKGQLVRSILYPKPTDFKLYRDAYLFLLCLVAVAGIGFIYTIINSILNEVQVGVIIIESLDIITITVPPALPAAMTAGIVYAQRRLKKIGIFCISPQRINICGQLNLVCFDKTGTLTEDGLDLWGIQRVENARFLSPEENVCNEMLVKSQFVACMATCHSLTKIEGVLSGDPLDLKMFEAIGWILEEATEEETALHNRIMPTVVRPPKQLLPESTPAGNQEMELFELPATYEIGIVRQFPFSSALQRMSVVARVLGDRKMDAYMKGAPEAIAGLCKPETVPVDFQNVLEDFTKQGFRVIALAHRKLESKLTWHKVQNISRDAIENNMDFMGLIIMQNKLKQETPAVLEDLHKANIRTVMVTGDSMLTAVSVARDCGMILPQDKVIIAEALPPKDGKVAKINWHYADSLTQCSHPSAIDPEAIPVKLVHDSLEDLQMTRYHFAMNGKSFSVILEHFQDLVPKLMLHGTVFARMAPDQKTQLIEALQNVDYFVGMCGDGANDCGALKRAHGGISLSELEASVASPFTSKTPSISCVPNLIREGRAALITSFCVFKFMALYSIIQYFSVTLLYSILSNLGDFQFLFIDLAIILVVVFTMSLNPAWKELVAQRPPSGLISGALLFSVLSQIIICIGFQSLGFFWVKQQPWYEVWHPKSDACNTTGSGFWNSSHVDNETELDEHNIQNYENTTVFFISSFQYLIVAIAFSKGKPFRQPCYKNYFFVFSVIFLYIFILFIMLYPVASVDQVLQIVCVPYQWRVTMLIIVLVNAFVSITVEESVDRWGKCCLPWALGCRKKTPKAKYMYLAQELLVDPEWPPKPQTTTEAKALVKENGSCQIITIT
UniProt Q9Y6H3: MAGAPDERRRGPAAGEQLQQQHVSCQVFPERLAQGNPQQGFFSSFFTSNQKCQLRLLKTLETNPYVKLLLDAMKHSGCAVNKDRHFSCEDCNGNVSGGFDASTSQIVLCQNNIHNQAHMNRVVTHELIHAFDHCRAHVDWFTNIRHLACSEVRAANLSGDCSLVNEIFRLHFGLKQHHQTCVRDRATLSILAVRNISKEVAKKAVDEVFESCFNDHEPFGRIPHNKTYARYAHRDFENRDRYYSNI
UniProt P54259: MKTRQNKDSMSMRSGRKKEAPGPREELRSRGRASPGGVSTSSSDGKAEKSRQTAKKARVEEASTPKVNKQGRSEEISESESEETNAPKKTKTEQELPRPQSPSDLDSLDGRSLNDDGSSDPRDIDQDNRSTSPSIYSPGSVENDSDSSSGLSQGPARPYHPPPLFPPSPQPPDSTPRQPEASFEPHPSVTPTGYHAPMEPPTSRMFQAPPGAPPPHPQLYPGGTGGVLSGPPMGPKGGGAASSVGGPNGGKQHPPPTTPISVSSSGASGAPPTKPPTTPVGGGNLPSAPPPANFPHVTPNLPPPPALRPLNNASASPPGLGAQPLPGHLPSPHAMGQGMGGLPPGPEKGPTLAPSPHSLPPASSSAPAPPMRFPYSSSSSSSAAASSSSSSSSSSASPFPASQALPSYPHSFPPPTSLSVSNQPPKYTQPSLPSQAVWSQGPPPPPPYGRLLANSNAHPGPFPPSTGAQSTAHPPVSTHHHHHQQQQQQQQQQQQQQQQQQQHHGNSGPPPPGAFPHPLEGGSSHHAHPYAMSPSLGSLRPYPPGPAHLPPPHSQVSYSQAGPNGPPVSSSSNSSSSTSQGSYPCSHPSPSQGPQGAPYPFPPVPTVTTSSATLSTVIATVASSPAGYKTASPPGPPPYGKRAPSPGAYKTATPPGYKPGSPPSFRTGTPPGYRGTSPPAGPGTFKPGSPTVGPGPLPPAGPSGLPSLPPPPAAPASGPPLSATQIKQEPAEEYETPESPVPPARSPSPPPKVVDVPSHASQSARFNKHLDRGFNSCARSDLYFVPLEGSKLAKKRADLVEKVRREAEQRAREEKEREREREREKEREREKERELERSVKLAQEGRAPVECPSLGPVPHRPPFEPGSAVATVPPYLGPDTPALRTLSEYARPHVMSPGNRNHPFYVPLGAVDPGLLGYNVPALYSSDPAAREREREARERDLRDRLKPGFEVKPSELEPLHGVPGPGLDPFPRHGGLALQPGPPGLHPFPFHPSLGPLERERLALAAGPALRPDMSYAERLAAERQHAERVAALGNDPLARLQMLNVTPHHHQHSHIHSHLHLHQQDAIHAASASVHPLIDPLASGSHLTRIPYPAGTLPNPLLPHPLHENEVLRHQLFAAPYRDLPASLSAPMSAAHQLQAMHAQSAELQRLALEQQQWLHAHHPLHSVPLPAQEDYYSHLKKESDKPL
UniProt P16615: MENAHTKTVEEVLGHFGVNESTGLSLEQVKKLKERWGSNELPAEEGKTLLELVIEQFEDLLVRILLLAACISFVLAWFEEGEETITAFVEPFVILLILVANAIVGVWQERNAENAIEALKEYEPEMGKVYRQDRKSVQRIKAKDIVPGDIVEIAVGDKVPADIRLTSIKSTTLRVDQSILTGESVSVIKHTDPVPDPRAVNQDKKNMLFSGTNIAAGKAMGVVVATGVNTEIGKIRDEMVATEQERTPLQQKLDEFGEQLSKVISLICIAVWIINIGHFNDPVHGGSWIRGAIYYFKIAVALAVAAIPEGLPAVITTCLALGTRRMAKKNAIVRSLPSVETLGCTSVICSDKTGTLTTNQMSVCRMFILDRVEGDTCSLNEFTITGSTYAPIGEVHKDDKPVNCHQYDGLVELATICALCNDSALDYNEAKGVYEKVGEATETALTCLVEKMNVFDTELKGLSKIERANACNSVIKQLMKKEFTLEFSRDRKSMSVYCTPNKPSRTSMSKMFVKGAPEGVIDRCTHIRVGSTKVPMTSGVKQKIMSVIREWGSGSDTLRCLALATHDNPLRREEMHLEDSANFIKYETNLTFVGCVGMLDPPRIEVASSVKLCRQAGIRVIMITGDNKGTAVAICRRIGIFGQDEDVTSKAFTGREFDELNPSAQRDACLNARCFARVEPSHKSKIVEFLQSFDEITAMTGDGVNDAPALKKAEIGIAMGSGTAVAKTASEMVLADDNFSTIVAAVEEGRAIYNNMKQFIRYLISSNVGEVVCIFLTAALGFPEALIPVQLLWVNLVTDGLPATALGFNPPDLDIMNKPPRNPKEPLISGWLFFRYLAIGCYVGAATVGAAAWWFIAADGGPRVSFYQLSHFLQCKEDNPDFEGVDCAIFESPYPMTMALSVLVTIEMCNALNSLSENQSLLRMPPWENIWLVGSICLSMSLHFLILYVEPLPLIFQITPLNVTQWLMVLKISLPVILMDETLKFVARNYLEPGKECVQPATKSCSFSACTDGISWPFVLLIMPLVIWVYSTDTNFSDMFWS
UniProt P06576, whole entry, looked up: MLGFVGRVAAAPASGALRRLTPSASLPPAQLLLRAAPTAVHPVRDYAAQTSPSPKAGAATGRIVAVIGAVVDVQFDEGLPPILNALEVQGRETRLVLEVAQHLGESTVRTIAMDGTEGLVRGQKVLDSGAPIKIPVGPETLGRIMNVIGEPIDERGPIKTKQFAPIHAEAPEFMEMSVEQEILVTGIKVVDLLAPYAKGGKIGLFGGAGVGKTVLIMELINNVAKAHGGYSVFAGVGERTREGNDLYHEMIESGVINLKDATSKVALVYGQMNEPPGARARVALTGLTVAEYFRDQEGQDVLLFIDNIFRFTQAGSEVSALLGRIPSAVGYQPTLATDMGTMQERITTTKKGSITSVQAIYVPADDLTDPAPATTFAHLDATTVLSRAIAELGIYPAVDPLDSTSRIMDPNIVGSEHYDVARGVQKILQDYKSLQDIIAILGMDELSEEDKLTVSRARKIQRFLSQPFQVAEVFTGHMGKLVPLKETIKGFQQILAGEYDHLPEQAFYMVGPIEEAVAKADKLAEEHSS
UniProt O43681: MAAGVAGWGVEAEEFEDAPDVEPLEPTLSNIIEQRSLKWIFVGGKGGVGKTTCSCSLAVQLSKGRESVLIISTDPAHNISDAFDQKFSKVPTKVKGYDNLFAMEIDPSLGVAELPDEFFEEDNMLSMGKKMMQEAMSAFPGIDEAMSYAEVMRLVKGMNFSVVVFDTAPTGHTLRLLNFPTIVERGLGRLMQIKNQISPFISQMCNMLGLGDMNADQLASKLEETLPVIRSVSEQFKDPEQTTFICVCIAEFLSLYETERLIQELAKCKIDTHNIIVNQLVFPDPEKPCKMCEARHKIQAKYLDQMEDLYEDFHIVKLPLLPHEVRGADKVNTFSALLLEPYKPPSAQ

Experiments:
Test in all cases: log2 fold change, soluble protein after heating vs DMSO (PISA); higher = thermal stabilisation; K562 lysate, 10 uM; active = over 0.2 and 3.5 SD of the protein, either way, in both replicates (recomputed)
[1] = compound: C#Cc1cccc(Nc2ncnc3cc(OCCOC)c(OCCOC)cc23)c1 [erlotinib]
How it was run: (§1)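 Quantification was by TMTpro 16plex LC-MS/MS with equalised channel sums, applied to the supernatant after 21,000xg for 90 min. Samples were crude K562 extract at 1 mg/mL protein in PBS pH 7.4 with 1 mM MgCl2, treated with 10 μM compound for 30 min, heated for 3 min across 48°C-58°C, pooled and brought to 0.5% NP-40 at 4°C. Values are log-two fold changes in thermal stability relative to solvent controls, from duplicates.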

[2] = compound: C/C(=N\NC(=O)C1=CC(=CC=C1)S(=O)(=O)N2CCOCC2)/C3=C(C=CC(=C3)Cl)O
How it was run: as §1

[3] = compound: C1=CC(=CC=C1C2=NC3=C(N2)C=C(C=C3)C(=O)N)OC4=CC=C(C=C4)Cl
How it was run: as §1

[4] = compound: C1=CC2=C(C=CC(=C2)/C=C\3/C(=O)NC(=NCC4=CC=CS4)S3)N=C1
How it was run: as §1

[5] = compound: C1=CC2=NC=CN=C2C=C1/C=C/3\C(=O)NC(=O)S3
How it was run: as §1

[6] = compound: C1=CC=C(C=C1)C2=NC(=C(N2)C3=CC=NC=C3)C4=CC(=C(C=C4)Cl)O
How it was run: as §1

[7] = compound: C1=CC=C2C(=C1)C3=NNC4=CC=CC(=C43)C2=O
How it was run: as §1

[8] = compound: C1CCN(C1)C(=O)NC2=CC=CC(=C2)NC3=NC=C(C(=N3)NCCC4=CN=CN4)Br
How it was run: as §1

[9] = compound: C1CN(CCC1(CC2=CC=C(C=C2)Cl)N)C3=NC=NC4=C3C=CN4
How it was run: as §1

[10] = compound: C1COCCN1CCN2C3=CC=CC=C3N=C2NC(=O)C4=CC(=CC=C4)[N+](=O)[O-] [IRAK-1-4 Inhibitor I]
How it was run: as §1

[11] = compound: C=CC(=O)N1CCC[C@@H](n2nc(-c3ccc(Oc4ccccc4)cc3)c3c(N)ncnc32)C1 [ibrutinib]
How it was run: as §1

[12] = compound: CC(=O)c1cnc2ccc(-c3cc(Cl)c(O)c(Cl)c3)nc2c1N[C@H]1CC[C@H](CN(C)C)CC1
How it was run: as §1

[13] = compound: CC(C)(C)Cn1c(N)nc2ccc(-c3[nH]c(C(C)(C)C)nc3-c3ccc(F)cc3)nc21 [ralimetinib]
How it was run: as §1

[14] = compound: CC(C)(O)CC(=O)NCCn1ccc2ncnc(Nc3ccc(Oc4cccc(C(F)(F)F)c4)c(Cl)c3)c21
How it was run: as §1

[15] = compound: CC(C)C1=C2N=C(C=C(N2N=C1)NCC3=CC=CC=C3)NCCCCCCN
How it was run: as §1

[16] = compound: CC1=C(C(CC(=O)N1)C2=CC=C(C=C2)C(F)(F)F)C(=O)NC3=C(C=C4C(=C3)C=NN4)F
How it was run: as §1

[17] = compound: CC1=C(C2=C(C=C1)C(=O)C3=CC=CC=C3N2CCCN)C
How it was run: as §1

[18] = compound: CC1=C(C=C(C=C1)NC(=O)C2=CC(=CC=C2)C(C)(C)C#N)NC3=CC4=C(C=C3)N=CN(C4=O)C
How it was run: as §1

[19] = compound: CC1=C(C=C(C=C1)NC(=O)C2=CC(=CC=C2)N(C)C)NC(=O)C3=CC=C(C=C3)O
How it was run: as §1

[20] = compound: CC1=CC=C(C=C1)SC2=C3C=C(SC3=CN=C2)C(=O)N
How it was run: as §1

Measured: log2 fold change

ATP13A3 (UniProt Q9H7F0)
inactive: [1] 0.071 | [2] 0.009 | [3] -0.067 | [4] 0.028 | [5] -0.07 | [6] -0.017 | [7] 0.02 | [8] -0.072 | [9] -0.027 | [10] 0.025 | [11] 0.059 | [12] -0.022 | [13] -0.024 | [14] -0.12 | [15] -0.068 | [16] -0.08 | [17] -0.017 | [18] 0.043 | [19] 0.016 | [20] 0.016

ATP23 (UniProt Q9Y6H3)
inactive: [1] -0.068 | [2] 0.125 | [3] -0.065 | [4] -0.138 | [5] -0.033 | [6] 0.054 | [7] -0.142 | [8] -0.029 | [9] -0.035 | [10] -0.045 | [11] -0.041 | [12] 0.009 | [13] -0.004 | [14] -0.015 | [15] 0.076 | [16] 0.019 | [17] 0.017 | [18] -0.106 | [19] -0.022 | [20] -0.02

ATN1 (UniProt P54259)
inactive: [1] -0.059 | [2] 0.036 | [3] 0.054 | [4] -0.003 | [5] 0.013 | [6] 0.007 | [7] -0.007 | [8] 0.009 | [9] 0.056 | [10] -0.01 | [11] 0.037 | [12] -0.032 | [13] -0.008 | [14] -0.078 | [15] 0.019 | [16] -0.017 | [17] -0.022 | [18] -0.15 | [19] -0.008 | [20] -0.038

AURKAIP1 (UniProt Q9NWT8)
inactive: [1] -0.062 | [2] -0.093 | [3] 0.046 | [4] -0.031 | [5] -0.019 | [7] 0.025 | [8] -0.032 | [9] 0.064 | [10] 0.095 | [11] -0.055 | [12] -0.095 | [13] -0.363 | [14] -0.222 | [15] 0.021 | [16] 0.029 | [17] -0.012 | [18] 0.135 | [20] -0.013
active: [6] 0.432 | [19] -0.417

ATP2A2 (UniProt P16615)
inactive: [1] -0.021 | [2] 0.027 | [3] -0.036 | [4] 0.001 | [5] 0.01 | [6] -0.024 | [7] -0.062 | [8] -0.043 | [9] 0.051 | [10] 0.026 | [11] -0.002 | [12] -0.002 | [13] 0.009 | [14] -0.021 | [15] -0.008 | [16] 0.006 | [17] 0.01 | [18] 0.026 | [19] 0.007 | [20] -0.003

ATP5F1B (UniProt P06576)
inactive: [1] -0.012 | [2] -0.024 | [3] 0.011 | [4] 0.003 | [5] -0.002 | [6] -0.003 | [7] 0.008 | [8] -0.001 | [9] -0.008 | [10] 0.014 | [11] 0.025 | [12] 0.009 | [13] -0.001 | [14] -0.026 | [15] -0.011 | [16] -0.011 | [17] -0.029 | [18] -0.006 | [19] 0 | [20] -0.005

ASNA1 (UniProt O43681)
inactive: [1] 0.033 | [2] -0.019 | [3] -0.031 | [4] 0.005 | [5] 0.017 | [6] -0.029 | [7] -0.001 | [8] 0.021 | [9] 0.009 | [10] -0.018 | [11] 0.009 | [12] 0.019 | [13] -0.01 | [14] 0.018 | [15] -0.024 | [16] -0.007 | [17] 0.028 | [18] 0.01 | [19] -0.033 | [20] 0.015

ATR (UniProt Q13535)
inactive: [1] -0.025 | [2] -0.012 | [3] -0.055 | [4] 0.336 | [5] 0.255 | [6] 0.125 | [7] 0.071 | [8] -0.005 | [9] 0.125 | [10] -0.025 | [11] 0.06 | [12] 0.319 | [13] 0 | [14] -0.037 | [15] 0.016 | [16] -0.015 | [17] -0.031 | [18] 0.032 | [19] 0.039 | [20] -0.053
